Source: publication PMC5412822
These are yes or no findings as the source states them, for the method shown. Binding seen in cells or lysates may run through a third protein. Some binding calls cover weakened binding; strength is not graded here.

Key:
[1] = target: T1, caspase‐8 (human (endogenous in HeLa, A549 and K562)), Q14790; test: co-IP; TRAIL complex II: HeLa cells stimulated with FLAG-lz-TRAIL (500 ng/ml); complex I-depleted lysates incubated overnight at 4°C with protein G beads coupled with anti-caspase-8 antibody (clone C20), Western blot; settings: remark: other sources report otherwise
T1 chain: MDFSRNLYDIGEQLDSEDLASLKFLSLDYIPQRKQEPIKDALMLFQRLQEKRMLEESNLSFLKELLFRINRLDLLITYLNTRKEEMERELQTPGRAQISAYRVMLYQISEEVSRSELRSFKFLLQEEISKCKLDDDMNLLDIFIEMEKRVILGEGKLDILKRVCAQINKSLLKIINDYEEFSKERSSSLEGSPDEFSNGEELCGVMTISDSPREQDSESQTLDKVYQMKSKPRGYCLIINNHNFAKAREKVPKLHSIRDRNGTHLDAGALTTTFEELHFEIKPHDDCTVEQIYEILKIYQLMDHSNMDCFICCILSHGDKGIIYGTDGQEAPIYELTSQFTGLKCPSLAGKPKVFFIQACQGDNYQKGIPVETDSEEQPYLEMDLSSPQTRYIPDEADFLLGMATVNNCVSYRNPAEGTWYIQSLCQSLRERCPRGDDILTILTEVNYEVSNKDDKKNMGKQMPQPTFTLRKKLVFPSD

[2] = target: caspase‐8 (human (endogenous in HeLa, A549 and K562)) (UniProt Q14790); test: as above
[3] = target: T2, FADD (murine) (mouse (endogenous in MEFs)), Q61160; test: co-IP; WT and HOIP KO TNF KO MEFs, pre-treated with zVAD for 1 h, stimulated with iz-murine TRAIL (1 μg/ml); FADD-containing complexes precipitated with protein G beads coupled with anti-murine FADD antibody (clone M19) overnight at 4°C, Western blot; settings: remark: other sources report otherwise
T2 chain: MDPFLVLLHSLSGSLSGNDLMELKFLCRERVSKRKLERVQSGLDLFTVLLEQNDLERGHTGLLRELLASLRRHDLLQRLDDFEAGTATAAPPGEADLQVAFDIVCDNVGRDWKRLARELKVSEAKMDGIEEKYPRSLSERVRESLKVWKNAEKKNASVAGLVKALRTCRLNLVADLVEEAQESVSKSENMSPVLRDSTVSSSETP

[4] = target: T3, FADD (murine) (mouse (endogenous in MEFs)) (UniProt Q61160); test: as above
T3 sequence: T2 chain

B1: TRAF2, Q12933 1-501 (protein)
chain: MAAASVTPPGSLELLQPGFSKTLLGTKLEAKYLCSACRNVLRRPFQAQCGHRYCSFCLASILSSGPQNCAACVHEGIYEEGISILESSSAFPDNAARREVESLPAVCPSDGCTWKGTLKEYESCHEGRCPLMLTECPACKGLVRLGEKERHLEHECPERSLSCRHCRAPCCGADVKAHHEVCPKFPLTCDGCGKKKIPREKFQDHVKTCGKCRVPCRFHAIGCLETVEGEKQQEHEVQWLREHLAMLLSSVLEAKPLLGDQSHAGSELLQRCESLEKKTATFENIVCVLNREVERVAMTAEACSRQHRLDQDKIEALSSKVQQLERSIGLKDLAMADLEQKVLEMEASTYDGVFIWKISDFARKRQEAVAGRIPAIFSPAFYTSRYGYKMCLRIYLNGDGTGRGTHLSLFFVVMKGPNDALLRWPFNQKVTLMLLDQNNREHVIDAFRPDVTSSSFQRPVNDMNIASGCPLFCPVSKMEAKNSYVRDDAIFIKAIVDLTGL
binding [1]: binds

B2: SHARPIN (protein, UniProt Q9H0F6 1-387)
chain: MAPPAGGAAAAASDLGSAAVLLAVHAAVRPLGAGPDAEAQLRRLQLSADPERPGRFRLELLGAGPGAVNLEWPLESVSYTIRGPTQHELQPPPGGPGTLSLHFLNPQEAQRWAVLVRGATVEGQNGSKSNSPPALGPEACPVSLPSPPEASTLKGPPPEADLPRSPGNLTEREELAGSLARAIAGGDEKGAAQVAAVLAQHRVALSVQLQEACFPPGPIRLQVTLEDAASAASAASSAHVALQVHPHCTVAALQEQVFSELGFPPAVQRWVIGRCLCVPERSLASYGVRQDGDPAFLYLLSAPREAPATGPSPQHPQKMDGELGRLFPPSLGLPPGPQPAASSLPSPLQPSWSCPSCTFINAPDRPGCEMCSTQRPCTWDPLAAAST
binding [2]: binds

B3: RIPK3 (murine), Q9QZL0 1-486 (enzyme)
chain: MSSVKLWPTGASAVPLVSREELKKLEFVGKGGFGVVFRAHHRTWNHDVAVKIVNSKKISWEVKAMVNLRNENVLLLLGVTEDLQWDFVSGQALVTRFMENGSLAGLLQPECPRPWPLLCRLLQEVVLGMCYLHSLNPPLLHRDLKPSNILLDPELHAKLADFGLSTFQGGSQSGSGSGSGSRDSGGTLAYLDPELLFDVNLKASKASDVYSFGILVWAVLAGREAELVDKTSLIRETVCDRQSRPPLTELPPGSPETPGLEKLKELMIHCWGSQSENRPSFQDCEPKTNEVYNLVKDKVDAAVSEVKHYLSQHRSSGRNLSAREPSQRGTEMDCPRETMVSKMLDRLHLEEPSGPVPGKCPERQAQDTSVGPATPARTSSDPVAGTPQIPHTLPFRGTTPGPVFTETPGPHPQRNQGDGRHGTPWYPWTPPNPMTGPPALVFNNCSEVQIGNYNSLVAPPRTTASSSAKYDQAQFGRGRGWQPFHK
binding [3]: binds

B4: MLKL (murine) (protein, UniProt Q9D2Y4 1-472)
chain: MDKLGQIIKLGQLIYEQCEKMKYCRKQCQRLGNRVHGLLQPLQRLQAQGKKNLPDDITAALGRFDEVLKEANQQIEKFSKKSHIWKFVSVGNDKILFHEVNEKLRDVWEELLLLLQVYHWNTVSDVSQPASWQQEDRQDAEEDGNENMKVILMQLQISVEEINKTLKQCSLKPTQEIPQDLQIKEIPKEHLGPPWTKLKTSKMSTIYRGEYHRSPVTIKVFNNPQAESVGIVRFTFNDEIKTMKKFDSPNILRIFGICIDQTVKPPEFSIVMEYCELGTLRELLDREKDLTMSVRSLLVLRAARGLYRLHHSETLHRNISSSSFLVAGGYQVKLAGFELSKTQNSISRTAKSTKAERSSSTIYVSPERLKNPFCLYDIKAEIYSFGIVLWEIATGKIPFEGCDSKKIRELVAEDKKQEPVGQDCPELLREIINECRAHEPSQRPSVDGRSLSGRERILERLSAVEESTDKKV
binding [4]: binds
